# Assay results published in patent US11168052B2, “Carbamate derivative compounds, processes for preparing them and their uses” (BIO-PHARM SOLUTIONS CO., LTD., priority 2016, dated 2021).
# Key:
# [1] = test system: MES (electroshock) seizure in mice; assay: Anti-epilepsy activity, MES test in mouse; assay type: in vivo, ICR mice
# Method: In the MES test (Ref., G. Villetti et al. Neuropharmacology 40(2001) 866-878), an electrical stimulus (mice: 50 mA, 60 Hz, 0.2 sec, and rats: 150 mA, 60 Hz, 0.2 sec in the test animal) supplied by an 11A Shocker (IITC Life Science Company) was delivered through corneal electrodes. All mice or rats assigned to any electroshock at peak time were treated with each test compound sample which was dissolved in 20% tween 80 prepared by saline solvent applied orally before the test. […] Three doses of the test sample were administered orally to 9-18 animals (3-6 mice per dose) for evaluating the respective doses at which 50% of the animals were protected from seizure (ED50). The ED50 value (median effective dose) was calculated by Litchfield and Wicoxon log-probit method which is a dose-response relationship. Experimental animals, male ICR mice and male SD rats, were purchased from OrientBio, Samtako, or Nara Biotech, Korea, and housed in cages (4-5 mice or 3 rats per cage) for 4-5 days. The range of mice body weight was between 19 and 25 grams and range of rats body weight was between 100 and 130 grams.
# corneally kindled rats = assay: Corneal kindling (CK) rat model; assay type: in vivo, Sprague-Dawley rats; conditions: p.o.
# Text: Male Sprague-Dawley rats (purchased from Orient Bio Inc. Korea) of body weight 85-100 g were used for these studies. The MES test using the electroshock seizure apparatus designed by Rodent Shocker Type221 (Hugo Sachs Elektronik, Germany). The kindled rat models were electrically stimulated (8 mA, 60 Hz, 2 s, corneal electrodes) twice daily for 21 days until stage 5 seizure scored by Racine's scale (Racine, 1972) were evoked. The kindled rats were fasted and adapted to test condition, for at least 1 hour before the administration of test material. The drugs were administered orally (p.o.) in a volume of 4 μl/g body weight. The corneally kindled rat model test is a model for generalized […] seizures or bipolar disorder and identifies the compound which prevents seizure or bipolar disorder spread. The shock level was set at 8 mA, 60 Hz and the duration was set at 2 s. A drop of 0.9% saline was placed in each eye, the electrodes were placed over the eyes, and the shock was administered immediately. Pharmacological effects of the test materials were evaluated to compare the test groups (n=6) with a control group (n=6). Control group was administrated vehicle, only. The peak time was determined by administration test material's random dose for 0.5, 1, 2, 4 hour. The time that the most protect was defined peak time and ED50 was determined by other dose administration at peak time. […]
smiles,measurement,setting,value
"NC(=O)O[C@@H]1Cc2cc(Cl)cc(Cl)c2[C@@H]1O [Example 59, (1S, 2R)-5,7-dichloro-1-hydroxy-2,3-dihydro-1H-inden-2-yl carbamate]",MES test (po) Peak time,[1],2 h
same,CK Peak Time,corneally kindled rats,4 h
